These are yes or no findings as the source states them, for the method shown. Binding seen in cells or lysates may run through a third protein. Some entries that bind do so weakly or less than the wild type.
Target: T1, blood vessel epicardial substance (BVES) (human (endogenous in Huh7)) (UniProt Q8NE79)
T1 sequence: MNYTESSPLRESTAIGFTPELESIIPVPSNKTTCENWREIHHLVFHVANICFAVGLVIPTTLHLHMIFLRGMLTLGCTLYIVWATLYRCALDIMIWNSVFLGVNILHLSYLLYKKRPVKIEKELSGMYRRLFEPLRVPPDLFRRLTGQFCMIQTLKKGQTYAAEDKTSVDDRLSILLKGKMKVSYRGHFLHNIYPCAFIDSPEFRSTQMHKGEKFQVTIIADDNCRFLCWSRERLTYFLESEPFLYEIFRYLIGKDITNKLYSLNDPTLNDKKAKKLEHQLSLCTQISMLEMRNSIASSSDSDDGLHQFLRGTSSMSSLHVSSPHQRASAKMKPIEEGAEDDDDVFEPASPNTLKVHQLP
Assay: co-IP; BVES immunoprecipitated from NP-40 lysate of Huh7 cells with anti-BVES antibody and Protein A/G agarose beads, overnight at 4 °C, washed four times with lysis buffer; western blots for ZO-1 and GEFT; normal mouse IgG as negative control

Sequences of proteins named here, by UniProt entry; tags and fusion partners are left off.
UniProt Q86VW2: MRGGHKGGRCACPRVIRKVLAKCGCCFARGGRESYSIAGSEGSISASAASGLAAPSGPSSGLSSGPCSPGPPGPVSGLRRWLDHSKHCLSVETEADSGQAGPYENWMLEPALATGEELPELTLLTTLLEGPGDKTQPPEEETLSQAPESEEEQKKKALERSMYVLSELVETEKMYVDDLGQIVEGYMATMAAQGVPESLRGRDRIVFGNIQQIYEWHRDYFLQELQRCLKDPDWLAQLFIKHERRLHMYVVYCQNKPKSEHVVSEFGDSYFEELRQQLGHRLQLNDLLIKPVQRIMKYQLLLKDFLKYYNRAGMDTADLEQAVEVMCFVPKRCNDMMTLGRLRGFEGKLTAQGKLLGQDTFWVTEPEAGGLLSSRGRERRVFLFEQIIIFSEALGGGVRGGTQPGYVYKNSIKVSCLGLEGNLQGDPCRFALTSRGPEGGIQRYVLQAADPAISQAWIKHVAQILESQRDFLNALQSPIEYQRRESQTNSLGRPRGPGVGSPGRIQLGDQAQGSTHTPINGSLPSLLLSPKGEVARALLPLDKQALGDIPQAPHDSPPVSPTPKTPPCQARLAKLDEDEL
UniProt Q07157: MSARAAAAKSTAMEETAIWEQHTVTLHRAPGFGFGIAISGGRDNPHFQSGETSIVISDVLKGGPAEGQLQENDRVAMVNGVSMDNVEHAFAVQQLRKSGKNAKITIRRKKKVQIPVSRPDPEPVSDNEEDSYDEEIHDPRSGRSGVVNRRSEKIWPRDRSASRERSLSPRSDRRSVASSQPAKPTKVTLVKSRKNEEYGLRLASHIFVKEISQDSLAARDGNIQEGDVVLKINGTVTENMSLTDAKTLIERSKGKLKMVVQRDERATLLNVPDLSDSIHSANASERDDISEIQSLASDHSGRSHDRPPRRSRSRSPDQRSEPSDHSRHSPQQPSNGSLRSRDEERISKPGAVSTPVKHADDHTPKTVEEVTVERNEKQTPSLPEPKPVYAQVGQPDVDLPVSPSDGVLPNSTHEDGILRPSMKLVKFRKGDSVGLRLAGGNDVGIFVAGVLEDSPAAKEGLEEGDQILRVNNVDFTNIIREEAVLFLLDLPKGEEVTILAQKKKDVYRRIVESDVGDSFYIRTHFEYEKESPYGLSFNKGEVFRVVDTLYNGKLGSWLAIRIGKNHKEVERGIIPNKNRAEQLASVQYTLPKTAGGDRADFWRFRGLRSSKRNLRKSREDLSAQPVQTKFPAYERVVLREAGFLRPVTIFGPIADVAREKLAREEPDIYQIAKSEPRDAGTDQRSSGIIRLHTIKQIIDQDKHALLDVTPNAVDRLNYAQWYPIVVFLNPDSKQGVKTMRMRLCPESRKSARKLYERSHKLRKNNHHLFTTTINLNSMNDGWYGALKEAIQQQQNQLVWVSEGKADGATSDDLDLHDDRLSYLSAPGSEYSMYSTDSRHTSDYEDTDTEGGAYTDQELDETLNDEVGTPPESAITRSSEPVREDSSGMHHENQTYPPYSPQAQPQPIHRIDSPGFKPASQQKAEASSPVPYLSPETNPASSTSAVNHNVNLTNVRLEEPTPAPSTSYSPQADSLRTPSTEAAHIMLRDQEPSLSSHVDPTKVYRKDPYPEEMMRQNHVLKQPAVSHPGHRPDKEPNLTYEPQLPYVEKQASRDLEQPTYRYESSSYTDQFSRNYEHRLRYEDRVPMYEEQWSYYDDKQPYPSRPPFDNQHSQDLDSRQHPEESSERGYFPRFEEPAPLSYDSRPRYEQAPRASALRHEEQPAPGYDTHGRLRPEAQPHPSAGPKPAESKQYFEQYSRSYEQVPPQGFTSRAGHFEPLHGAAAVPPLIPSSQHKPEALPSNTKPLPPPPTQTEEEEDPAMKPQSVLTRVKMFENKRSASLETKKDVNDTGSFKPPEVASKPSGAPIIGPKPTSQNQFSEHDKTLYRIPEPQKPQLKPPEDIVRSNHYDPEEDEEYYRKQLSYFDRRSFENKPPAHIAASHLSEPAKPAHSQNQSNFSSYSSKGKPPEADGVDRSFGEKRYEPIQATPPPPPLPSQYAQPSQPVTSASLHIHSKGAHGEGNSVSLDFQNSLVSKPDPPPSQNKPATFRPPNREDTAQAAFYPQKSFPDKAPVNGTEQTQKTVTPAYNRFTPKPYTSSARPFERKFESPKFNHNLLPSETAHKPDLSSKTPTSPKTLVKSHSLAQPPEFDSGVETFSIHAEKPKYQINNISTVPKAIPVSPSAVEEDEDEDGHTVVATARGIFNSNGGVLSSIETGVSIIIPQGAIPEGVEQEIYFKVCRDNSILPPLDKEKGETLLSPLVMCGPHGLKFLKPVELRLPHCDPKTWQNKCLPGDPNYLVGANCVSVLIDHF

| Substance | binding |
| --- | --- |
| GEFT (from UniProt Q86VW2 1-580) | binds |
| zonula occludens-1 (ZO-1) (from UniProt Q07157 1-1748) | binds |
